Assay results published in publication PMC11938383, “Antibodies targeting ADAM17 reverse neurite outgrowth inhibition by myelin-associated inhibitors” (Life Science Alliance, 2025).
These are yes or no findings as the source states them, for the method shown. Some entries that bind do so weakly or less than the wild type.

The chains behind the UniProt entries cited, without tags or fusion partners. Where a name states a change or a piece, a line headed by the entry shows the natural chain unless it says otherwise. A line that says so, or that is headed by a name, gives the form on record, which may keep a tag or linker. Residues count along the entry.
UniProt Q9D1T0: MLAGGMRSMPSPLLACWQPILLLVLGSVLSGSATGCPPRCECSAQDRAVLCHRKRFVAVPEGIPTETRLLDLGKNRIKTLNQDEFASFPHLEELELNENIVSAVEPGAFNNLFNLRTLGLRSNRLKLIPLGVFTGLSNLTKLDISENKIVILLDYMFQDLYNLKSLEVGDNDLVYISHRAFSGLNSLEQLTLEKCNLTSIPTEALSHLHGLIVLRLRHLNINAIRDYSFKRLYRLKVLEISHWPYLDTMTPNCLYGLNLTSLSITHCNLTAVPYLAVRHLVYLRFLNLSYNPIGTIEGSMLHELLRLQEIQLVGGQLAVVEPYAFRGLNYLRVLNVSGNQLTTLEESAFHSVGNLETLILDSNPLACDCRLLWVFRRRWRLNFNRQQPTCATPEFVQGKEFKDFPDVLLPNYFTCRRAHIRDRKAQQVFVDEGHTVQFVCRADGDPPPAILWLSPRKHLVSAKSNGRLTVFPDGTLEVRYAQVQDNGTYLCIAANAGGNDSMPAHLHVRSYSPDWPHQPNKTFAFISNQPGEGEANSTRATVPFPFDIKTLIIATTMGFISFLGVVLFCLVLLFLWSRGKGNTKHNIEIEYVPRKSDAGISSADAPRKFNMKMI
UniProt P08138, residues 31-210: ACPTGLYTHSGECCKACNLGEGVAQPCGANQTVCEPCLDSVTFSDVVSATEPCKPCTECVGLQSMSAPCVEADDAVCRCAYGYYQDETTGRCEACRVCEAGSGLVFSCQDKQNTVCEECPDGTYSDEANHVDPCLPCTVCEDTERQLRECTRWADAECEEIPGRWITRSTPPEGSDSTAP
UniProt P20916: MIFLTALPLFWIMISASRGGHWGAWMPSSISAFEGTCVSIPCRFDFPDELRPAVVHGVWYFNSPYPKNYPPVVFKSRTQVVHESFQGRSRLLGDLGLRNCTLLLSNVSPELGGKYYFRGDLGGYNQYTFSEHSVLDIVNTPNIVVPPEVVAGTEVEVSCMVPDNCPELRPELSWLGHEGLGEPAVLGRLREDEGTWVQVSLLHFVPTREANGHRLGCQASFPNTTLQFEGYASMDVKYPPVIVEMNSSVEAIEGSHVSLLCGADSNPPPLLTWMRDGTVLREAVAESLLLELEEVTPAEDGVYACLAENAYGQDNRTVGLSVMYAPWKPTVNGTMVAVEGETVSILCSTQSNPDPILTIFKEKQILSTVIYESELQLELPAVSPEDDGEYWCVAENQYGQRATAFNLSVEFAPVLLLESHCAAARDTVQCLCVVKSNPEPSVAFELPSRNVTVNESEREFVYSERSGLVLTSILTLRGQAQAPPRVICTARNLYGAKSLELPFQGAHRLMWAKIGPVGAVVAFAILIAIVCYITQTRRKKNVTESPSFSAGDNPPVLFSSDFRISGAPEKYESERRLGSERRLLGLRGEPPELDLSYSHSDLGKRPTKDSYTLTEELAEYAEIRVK
ADAM17 ECD (E406A)-Fc (P78536, form named): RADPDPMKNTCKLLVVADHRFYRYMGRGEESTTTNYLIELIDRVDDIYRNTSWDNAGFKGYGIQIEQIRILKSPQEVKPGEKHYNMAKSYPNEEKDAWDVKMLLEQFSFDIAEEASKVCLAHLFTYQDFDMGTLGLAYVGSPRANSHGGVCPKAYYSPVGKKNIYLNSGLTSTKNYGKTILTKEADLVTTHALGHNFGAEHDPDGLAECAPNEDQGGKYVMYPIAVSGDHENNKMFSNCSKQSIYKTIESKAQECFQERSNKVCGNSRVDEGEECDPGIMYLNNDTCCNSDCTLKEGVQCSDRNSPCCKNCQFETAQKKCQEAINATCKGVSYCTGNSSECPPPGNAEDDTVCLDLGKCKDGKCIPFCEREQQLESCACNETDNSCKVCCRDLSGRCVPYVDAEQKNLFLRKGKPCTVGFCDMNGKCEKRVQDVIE

Legend:
[1] = target: neuron-myelin 5-mer signaling complex (NgR1, Lingo-1-Fc, p75, MAG, GT1b-Na) (mouse | human) (UniProt Q9D1T0+Q9BZR6+P08138+P20916); assay: pull-down; protein A-Sepharose; bait: pre-formed neuronal complex (Lingo-1-Fc, NgR1, p75, GT1b), pre-formed 5-mer complex, p75-Fc, or ADAM17 ECD (E406A)-Fc; prey: ADAM17 ECD (E406A), ADAM17 D+C or untagged p75; washed twice; SDS-PAGE; both purified
[2] = target: T1, ADAM10 D+C (residues 455-646) (bovine) (UniProt Q10741); assay: ELISA; wells coated with 2 μg/ml ADAM17 ECD (E406A), ADAM17 D+C, ADAM10 ECD (E384A) or ADAM10 D+C overnight at 4°C; varying concentrations of 5-mer complex or isolated p75 added, 1 h at RT; detected with mAb 8J2 (p75) or MAG A-11 (5-mer); both purified
T1 sequence: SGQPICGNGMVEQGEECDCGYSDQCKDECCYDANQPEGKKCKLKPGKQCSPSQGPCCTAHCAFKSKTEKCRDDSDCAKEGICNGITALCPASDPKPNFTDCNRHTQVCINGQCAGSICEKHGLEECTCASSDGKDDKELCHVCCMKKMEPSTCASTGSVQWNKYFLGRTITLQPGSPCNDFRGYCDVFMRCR

[3] = target: ADAM17 ectodomain (ECD), residues 215-650, active-site mutant E406A (human) (UniProt P78536); assay: as above
[4] = target: ADAM10 ectodomain (ECD), residues 214-646, active-site mutant E384A (bovine) (UniProt Q10741); assay: as above
[5] = target: ADAM17 ectodomain (ECD), residues 215-650, active-site mutant E406A (human) (UniProt P78536); assay: ELISA; wells coated with ADAM17 ECD (E406A) or ADAM17 D+C; varying concentrations of mAbs D8P1C1, D5P2A11 or C12 added for 1 h at RT, washed, then 5-mer complex (25 μg/ml); detected with MAG A-11; both purified
[6] = target: ADAM17 ECD (E406A)-Fc (human) (UniProt P78536); assay: pull-down; protein A-Sepharose; bait: pre-formed neuronal complex (Lingo-1-Fc, NgR1, p75, GT1b), pre-formed 5-mer complex, p75-Fc, or ADAM17 ECD (E406A)-Fc; prey: ADAM17 ECD (E406A), ADAM17 D+C or untagged p75; washed twice; SDS-PAGE; both purified
[7] = target: NgR1 (residues 30-430) (human) (UniProt Q9BZR6); assay: SEC; individual proteins (Lingo-1, NgR1, p75 31-250) run alone on the SD-200 column, in the presence of GT1b-Na; both purified

“ADAM17 ectodomain (ECD), residues 215-650, active-site mutant E406A (from UniProt P78536 215-650) (domain or fragment)” was tested, and the binding [1] was “binds”.

“neuron-myelin 5-mer signaling complex (NgR1, Lingo-1-Fc, p75, MAG, GT1b-Na) (from UniProt Q9D1T0 35-516; Q9BZR6 30-430; P08138 31-210; P20916 22-504)” was tested, and the binding [2] was “no binding”, the binding [3] was “binds” and the binding [4] was “no binding”. For the same molecule, the binding [5] was “binds”.

For “p75 (residues 31-210) (from UniProt P08138 31-210) (domain or fragment)”, the binding [6] was “no binding”.

B1: NgR1 (residues 30-430) (domain or fragment, UniProt Q9BZR6 30-430)
chain: ACVCYNEPKVTTSCPQQGLQAVPVGIPAASQRIFLHGNRISHVPAASFRACRNLTILWLHSNVLARIDAAAFTGLALLEQLDLSDNAQLRSVDPATFHGLGRLHTLHLDRCGLQELGPGLFRGLAALQYLYLQDNALQALPDDTFRDLGNLTHLFLHGNRISSVPERAFRGLHSLDRLLLHQNRVAHVHPHAFRDLGRLMTLYLFANNLSALPTEALAPLRALQYLRLNDNPWVCDCRARPLWAWLQKFRGSSSEVPCSLPQRLAGRDLKRLAANDLQGCAVATGPYHPIWTGRATDEEPLGLPKCCQPDAADKASVLEPGRPASAGNALKGRVPPGDSPPGNGSGPRHINDSPFGTLPGSAEPPLTAVRPEGSEPPGFPTSGPRRRPGCSRKNRTRSHCR
B1 was tested, and the binding [7] was “no binding”.
